Results: patent US20030186286A1
No constants are given. Whether binding was seen depends on the method and setting. Some entries that bind do so weakly or less than the wild type.

Protein sequences, listed by entry. Tags and fused reporters are not part of them. Residues count along the entry.
UniProt P42227, residues 2-770: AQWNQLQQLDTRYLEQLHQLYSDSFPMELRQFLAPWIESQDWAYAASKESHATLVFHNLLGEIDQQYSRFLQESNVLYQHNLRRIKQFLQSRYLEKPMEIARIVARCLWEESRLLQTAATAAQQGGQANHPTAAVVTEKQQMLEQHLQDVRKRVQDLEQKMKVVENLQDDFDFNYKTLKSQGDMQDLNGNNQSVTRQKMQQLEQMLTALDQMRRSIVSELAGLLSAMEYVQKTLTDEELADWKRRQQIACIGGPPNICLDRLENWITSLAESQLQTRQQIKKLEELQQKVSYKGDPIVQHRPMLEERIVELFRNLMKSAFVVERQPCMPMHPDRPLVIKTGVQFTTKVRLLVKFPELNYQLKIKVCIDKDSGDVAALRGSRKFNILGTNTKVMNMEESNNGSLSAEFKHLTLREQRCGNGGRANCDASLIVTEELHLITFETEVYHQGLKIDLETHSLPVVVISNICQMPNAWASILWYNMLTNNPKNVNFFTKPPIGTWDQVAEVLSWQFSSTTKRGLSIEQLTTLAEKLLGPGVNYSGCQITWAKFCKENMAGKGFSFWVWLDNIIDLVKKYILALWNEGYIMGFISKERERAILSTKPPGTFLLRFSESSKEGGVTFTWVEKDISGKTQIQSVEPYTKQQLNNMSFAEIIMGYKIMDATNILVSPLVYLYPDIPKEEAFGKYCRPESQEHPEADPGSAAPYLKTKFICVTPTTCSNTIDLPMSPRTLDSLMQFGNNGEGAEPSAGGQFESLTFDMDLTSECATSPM

B1: STAT-1 (protein, UniProt P42225 2-749, looked up)
chain: SQWFELQQLDSKFLEQVHQLYDDSFPMEIRQYLAQWLEKQDWEHAAYDVSFATIRFHDLLSQLDDQYSRFSLENNFLLQHNIRKSKRNLQDNFQEDPVQMSMIIYNCLKEERKILENAQRFNQAQEGNIQNTVMLDKQKELDSKVRNVKDQVMCIEQEIKTLEELQDEYDFKCKTSQNREGEANGVAKSDQKQEQLLLHKMFLMLDNKRKEIIHKIRELLNSIELTQNTLINDELVEWKRRQQSACIGGPPNACLDQLQTWFTIVAETLQQIRQQLKKLEELEQKFTYEPDPITKNKQVLSDRTFLLFQQLIQSSFVVERQPCMPTHPQRPLVLKTGVQFTVKSRLLVKLQESNLLTKVKCHFDKDVNEKNTVKGFRKFNILGTHTKVMNMEESTNGSLAAELRHLQLKEQKNAGNRTNEGPLIVTEELHSLSFETQLCQPGLVIDLETTSLPVVVISNVSQLPSGWASILWYNMLVTEPRNLSFFLNPPCAWWSQLSEVLSWQFSSVTKRGLNADQLSMLGEKLLGPNAGPDGLIPWTRFCKENINDKNFSFWPWIDTILELIKNDLLCLWNDGCIMGFISKERERALLKDQQPGTFLLRFSESSREGAITFTWVERSQNGGEPDFHAVEPYTKKELSAVTFPDIIRNYKVMAAENIPENPLKYLYPNIDKDHAFGKYYSRPKEAPEPMELDDPKRTGYIKTELISVSEVHPSRLQTTDNLLPMSPEEFDEMSRIVGPEFDSMMSTV

Key:
[1] = biological target: STAT-3 (UniProt P42227); assay: EMSA on the SOCS-3 promoter oligoprobe (-77 to -57); bands identified by antibody supershift
[2] = biological target: STAT-1 (UniProt P42225); assay: as above

Molecule	binding [1]	binding [2]
STAT-3 (from UniProt P42227 2-770)	binds	–
B1	binds	binds
